# B1: Peroxiredoxin-6 (protein, UniProt P30041 2-224, looked up)
# Peroxiredoxin-6: PGGLLLGDVAPNFEANTTVGRIRFHDFLGDSWGILFSHPRDFTPVCTTELGRAAKLAPEFAKRNVKLIALSIDSVEDHLAWSKDINAYNCEEPTEKLPFPIIDDRNRELAILLGMLDPAEKDEKGMPVTARVVFVFGPDKKLKLSILYPATTGRNFDEILRVVISLQLTAEKRVATPVDWKDGDSVMVLPTIPEEEAKKLFPKGVFTKELPSGKKYLRYTPQP
# B2: Phosphoglycerate mutase 1 (protein, UniProt P18669 2-254, looked up)
# Phosphoglycerate mutase 1: AAYKLVLIRHGESAWNLENRFSGWYDADLSPAGHEEAKRGGQALRDAGYEFDICFTSVQKRAIRTLWTVLDAIDQMWLPVVRTWRLNERHYGGLTGLNKAETAAKHGEAQVKIWRRSYDVPPPPMEPDHPFYSNISKDRRYADLTEDQLPSCESLKDTIARALPFWNEEIVPQIKEGKRVLIAAHGNSLRGIVKHLEGLSEEAIMELNLPTGIPIVYELDKNLKPIKPMQFLGDEETVRKAMEAVAAQGKAKK
# B3: Platelet-activating factor acetylhydrolase IB subunit beta (protein, UniProt P68402 2-229, looked up)
# Platelet-activating factor …: SQGDSNPAAIPHAAEDIQGDDRWMSQHNRFVLDCKDKEPDVLFVGDSMVQLMQQYEIWRELFSPLHALNFGIGGDTTRHVLWRLKNGELENIKPKVIVVWVGTNNHENTAEEVAGGIEAIVQLINTRQPQAKIIVLGLLPRGEKPNPLRQKNAKVNQLLKVSLPKLANVQLLDTDGGFVHSDGAISCHDMFDFLHLTGGGYAKICKPLHELIMQLLEETPEEKQTTIA
# B4: Alpha-2-HS-glycoprotein (protein, UniProt P02765 19-300; P02765 341-367, looked up)
# Alpha-2-HS-glycoprotein chain … 1: APHGPGLIYRQPNCDDPETEEAALVAIDYINQNLPWGYKHTLNQIDEVKVWPQQPSGELFEIEIDTLETTCHVLDPTPVARCSVRQLKEHAVEGDCDFQLLKLDGKFSVVYAKCDSSPDSAEDVRKVCQDCPLLAPLNDTRVVHAAKAALAAFNAQNNGSNFQLEEISRAQLVPLPPSTYVEFTVSGTDCVAKEATEAAKCNLLAEKQYGFCKATLSEKLGGAEVAVTCMVFQTQPVSSQPQPEGANEAVPTPVVDPDAPPSPPLGAPGLPPAGSPPDSHVL
# Alpha-2-HS-glycoprotein chain … 2: TVVQPSVGAAAGPVVPPCPGRIRHFKV
# B5: Pleiotrophin (protein, UniProt P21246 33-168, looked up)
# Pleiotrophin: GKKEKPEKKVKKSDCGEWQWSVCVPTSGDCGLGTREGTRTGAECKQTMKTQRCKIPCNWKKQFGAECKYQFQAWGECDLNTALKTRTGSLKRALHNAECQKTVTISKPCGKLTKPKPQAESKKKKKEGKKQEKMLD
# B6: Pyridoxal kinase (protein, UniProt O00764 1-312, looked up)
# Pyridoxal kinase: MEEECRVLSIQSHVIRGYVGNRAATFPLQVLGFEIDAVNSVQFSNHTGYAHWKGQVLNSDELQELYEGLRLNNMNKYDYVLTGYTRDKSFLAMVVDIVQELKQQNPRLVYVCDPVLGDKWDGEGSMYVPEDLLPVYKEKVVPLADIITPNQFEAELLSGRKIHSQEEALRVMDMLHSMGPDTVVITSSDLPSPQGSNYLIVLGSQRRRNPAGSVVMERIRMDIRKVDAVFVGTGDLFAAMLLAWTHKHPNNLKVACEKTVSTLHHVLQRTIQCAKAQAGEGVRPSPMQLELRMVQSKRDIEDPEIVVQATVL
# B7: Rab GDP dissociation inhibitor beta (protein, UniProt P50395 1-445, looked up)
# Rab GDP dissociation …: MNEEYDVIVLGTGLTECILSGIMSVNGKKVLHMDRNPYYGGESASITPLEDLYKRFKIPGSPPESMGRGRDWNVDLIPKFLMANGQLVKMLLYTEVTRYLDFKVTEGSFVYKGGKIYKVPSTEAEALASSLMGLFEKRRFRKFLVYVANFDEKDPRTFEGIDPKKTTMRDVYKKFDLGQDVIDFTGHALALYRTDDYLDQPCYETINRIKLYSESLARYGKSPYLYPLYGLGELPQGFARLSAIYGGTYMLNKPIEEIIVQNGKVIGVKSEGEIARCKQLICDPSYVKDRVEKVGQVIRVICILSHPIKNTNDANSCQIIIPQNQVNRKSDIYVCMISFAHNVAAQGKYIAIVSTTVETKEPEKEIRPALELLEPIEQKFVSISDLLVPKDLGTESQIFISRTYDATTHFETTCDDIKNIYKRMTGSEFDFEEMKRKKNDIYGED
# B8: Repulsive guidance molecule A (protein, UniProt Q96B86 169-424, looked up)
# Repulsive guidance molecule A: PHLRTFTDRFQTCKVQGAWPLIDNNYLNVQVTNTPVLPGSAATATSKLTIIFKNFQECVDQKVYQAEMDELPAAFVDGSKNGGDKHGANSLKITEKVSGQHVEIQAKYIGTTIVVRQVGRYLTFAVRMPEEVVNAVEDWDSQGLYLCLRGCPLNQQIDFQAFHTNAEGTGARRLAAASPAPTAPETFPYETAVAKCKEKLPVEDLYYQACVFDLLTTGDVNFTLAAYYALEDVKMLHSNKDKLHLYERTRDLPGRA
# B9: RGM domain family member B (protein, UniProt Q6NW40 46-413, looked up)
# Repulsive guidance molecule B: GDCQQPAQCRIQKCTTDFVSLTSHLNSAVDGFDSEFCKALRAYAGCTQRTSKACRGNLVYHSAVLGISDLMSQRNCSKDGPTSSTNPEVTHDPCNYHSHAGAREHRRGDQNPPSYLFCGLFGDPHLRTFKDNFQTCKVEGAWPLIDNNYLSVQVTNVPVVPGSSATATNKITIIFKAHHECTDQKVYQAVTDDLPAAFVDGTTSGGDSDAKSLRIVERESGHYVEMHARYIGTTVFVRQVGRYLTLAIRMPEDLAMSYEESQDLQLCVNGCPLSERIDDGQGQVSAILGHSLPRTSLVQAWPGYTLETANTQCHEKMPVKDIYFQSCVFDLLTTGDANFTAAAHSALEDVEALHPRKERWHIFPSSGN
# B10: Ribosome maturation protein SBDS (protein, UniProt Q9Y3A5 2-250, looked up)
# Ribosome maturation protein …: SIFTPTNQIRLTNVAVVRMKRAGKRFEIACYKNKVVGWRSGVEKDLDEVLQTHSVFVNVSKGQVAKKEDLISAFGTDDQTEICKQILTKGEVQVSDKERHTQLEQMFRDIATIVADKCVNPETKRPYTVILIERAMKDIHYSVKTNKSTKQQALEVIKQLKEKMKIERAHMRLRFILPVNEGKKLKEKLKPLIKVIESEDYGQQLEIVCLIDPGCFREIDELIKKETKGKGSLEVLNLKDVEEGDEKFE
# B11: RNA-binding protein 39 (protein, UniProt Q14498 2-530, looked up)
# RNA-binding protein 39: ADDIDIEAMLEAPYKKDENKLSSANGHEERSKKRKKSKSRSRSHERKRSKSKERKRSRDRERKKSKSRERKRSRSKERRRSRSRSRDRRFRGRYRSPYSGPKFNSAIRGKIGLPHSIKLSRRRSRSKSPFRKDKSPVREPIDNLTPEERDARTVFCMQLAARIRPRDLEEFFSTVGKVRDVRMISDRNSRRSKGIAYVEFVDVSSVPLAIGLTGQRVLGVPIIVQASQAEKNRAAAMANNLQKGSAGPMRLYVGSLHFNITEDMLRGIFEPFGRIESIQLMMDSETGRSKGYGFITFSDSECAKKALEQLNGFELAGRPMKVGHVTERTDASSASSFLDSDELERTGIDLGTTGRLQLMARLAEGTGLQIPPAAQQALQMSGSLAFGAVAEFSFVIDLQTRLSQQTEASALAAAASVQPLATQCFQLSNMFNPQTEEEVGWDTEIKDDVIEECNKHGGVIHIYVDKNSAQGNVYVKCPSIAAAIAAVNALHGRWFAGKMITAAYVPLPTYHNLFPDSMTATQLLVPSRR
# B12: Secreted and transmembrane protein 1 (protein, UniProt Q8WVN6 29-248, looked up)
# Secreted and transmembrane …: QNEGWDSPICTEGVVSVSWGENTVMSCNISNAFSHVNIKLRAHGQESAIFNEVAPGYFSRDGWQLQVQGGVAQLVIKGARDSHAGLYMWHLVGHQRNNRQVTLEVSGAEPQSAPDTGFWPVPAVVTAVFILLVALVMFAWYRCRCSQQRREKKFFLLEPQMKVAALRAGAQQGLSRASAELWTPDSEPTPRPLALVFKPSPLGALELLSPQPLFPYAADP
# Tested on: proteins in oral lavage
# Test: Abundance of proteins in human oral lavage (SomaLogic), TABLE 1
# Assay type: in vivo
# Conditions: abundance in oral lavage; high bleeders (gingivitis), baseline
row,Molecule,Means (Original Scale) High bleeder BL
1,B1,22914
2,B2,52081
3,B3,6029
4,B4,23244
5,B5,20915
6,B6,2457
7,B7,173349
8,B8,10483
9,B9,9860
10,B10,595
11,B11,2206
12,B12,1633

# Same assay, conditions: abundance in oral lavage; high bleeders, week 4 of investigative products
row,Molecule,Means (Original Scale) High bleeder W4
1,B1,15898
2,B2,19944
3,B4,12828
4,B5,10949
5,B6,1778
6,B7,149926
7,B8,5917
8,B9,4375
9,B10,263
10,B11,1128
11,B12,905

# Same assay, conditions: abundance in oral lavage; low bleeders (healthy), baseline
row,Molecule,Means (Original Scale) Low bleeder BL
1,B1,9404
2,B2,7725
3,B3,1218
4,B4,3367
5,B5,9417
6,B6,281
7,B7,49425
8,B8,2620
9,B9,1389
10,B10,230
11,B11,276
12,B12,400

# Same assay, conditions: in vivo, po
row,Molecule,Means (Original Scale) High bleeder W4
1,B3,3019

# Same assay, conditions: oral lavage, high bleeders, week 4 of treatment vs baseline
row,Molecule,Fold Change High bleeder W4 vs High bleeder BL
1,B1,0.64
2,B2,0.17
3,B3,0.55
4,B5,0.58
5,B6,0.54
6,B7,0.90
7,B8,0.62
8,B9,0.52
9,B10,0.60
10,B11,0.48
11,B12,0.64

# Same assay, conditions: oral lavage, high vs low bleeders at baseline
row,Molecule,Fold Change High bleeder BL vs Low bleeder BL
1,B1,2.62
2,B2,25.56
3,B3,4.50
4,B5,2.15
5,B6,12.00
6,B7,6.49
7,B8,3.69
8,B9,6.17
9,B10,2.55
10,B11,6.91
11,B12,3.57

# Same assay, conditions: oral lavage; high bleeders vs low bleeders at baseline
row,Molecule,Fold Change High bleeder BL vs Low bleeder BL
1,B4,6.01

# Same assay, conditions: oral lavage; week 4 of investigative products vs baseline, high bleeders
row,Molecule,Fold Change High bleeder W4 vs High bleeder BL
1,B4,0.66

# Source: patent publication US20180320217A1, “METHODS FOR SAMPLING AND MEASURING ORAL LAVAGE PROTEINS” (The Procter & Gamble Company, priority 2017, published 2018)
